Data taken from PubChem BioAssay AID1053133, deposited by Broad Institute (2014).

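Vaccinia-infected cells with a two-color viral stage reporter; Venus fluorescence read on a plate reader; the cell line is not named here; timing not stated here.
The test concentration is not given here.
Percent change in Venus reporter signal; lower (more negative) values mean stronger inhibition of that viral stage.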

Values are in %.
How 0% and 100% were set is not given here.
Common to all entries: measured here: Venus reporter, other viral stage.
Part of the compounds only, not a random draw; the main read-out is not listed here.

structure: C[C@H](CO)N1C[C@H](C)[C@H](CN(C)C(=O)C2CCCCC2)OCCCC[C@H](C)Oc2ccc(NS(=O)(=O)c3ccc(Cl)cc3)cc2C1=O
activity change (Venus) (%): -67.33

structure: C[C@@H]1CN([C@@H](C)CO)S(=O)(=O)c2ccc(Br)cc2O[C@H]1CN(C)Cc1ccccc1
activity change (Venus) (%): -30.14

structure: COc1ccc(CN(C)C[C@H]2OCCCC[C@H](C)Oc3ccc(NS(=O)(=O)c4ccc(C)cc4)cc3C(=O)N([C@H](C)CO)C[C@@H]2C)cc1
activity change (Venus) (%): -21.63

structure: Cc1cccc(-c2ccc([C@H]3[C@H]4CN(C(=O)NC5CCCCC5)CC(=O)N4[C@H]3CO)cc2)c1
activity change (Venus) (%): -26.03

structure: C[C@H]1CN([C@@H](C)CO)C(=O)c2cccc(NC(=O)c3ccc(-c4nccs4)cc3)c2O[C@@H]1CN(C)C(=O)Nc1ccc(C(F)(F)F)cc1
activity change (Venus) (%): -23.36

structure: C[C@@H]1CN([C@H](C)CO)S(=O)(=O)c2ccc(/C=C/c3ccccc3)cc2O[C@H]1CN(C)Cc1ccc(C(=O)O)cc1
activity change (Venus) (%): -37.98

structure: COc1ccc(NC(=O)Nc2ccc3c(c2)C(=O)N([C@H](C)CO)C[C@@H](C)[C@@H](CN(C)CC2CCCCC2)OCCCC[C@@H](C)O3)cc1
activity change (Venus) (%): -66.01

structure: COc1ccc(CN(C)C[C@H]2Oc3c(NC(=O)c4ccc(-c5nccs5)cc4)cccc3C(=O)N([C@@H](C)CO)C[C@@H]2C)cc1
activity change (Venus) (%): -37.96

structure: C[C@H](CO)N1C[C@H](C)[C@H](CN(C)Cc2ccc(-c3ccccc3)cc2)Oc2cc(C#C[C@@H](C)O)ccc2S1(=O)=O
activity change (Venus) (%): -27.87

structure: Cc1ccccc1-c1ccc2c(c1)O[C@H](CN(C)Cc1ccncc1)[C@H](C)CN([C@@H](C)CO)S2(=O)=O
activity change (Venus) (%): -64.17

structure: C[C@@H]1CCCCO[C@@H](CN(C)C(=O)C2CCCCC2)[C@H](C)CN([C@H](C)CO)C(=O)c2cc(NC(=O)Nc3ccc4c(c3)OCO4)ccc2O1
activity change (Venus) (%): -25.71

structure: COc1cccc(NC(=O)N(C)C[C@H]2Oc3cc(C#Cc4ccncc4)ccc3S(=O)(=O)N([C@@H](C)CO)C[C@@H]2C)c1
activity change (Venus) (%): -77.37

structure: C[C@H]1CN([C@@H](C)CO)S(=O)(=O)c2ccc(/C=C/c3ccccc3)cc2O[C@@H]1CN(C)C(=O)c1ccc2c(c1)OCO2
activity change (Venus) (%): -32.06

structure: C[C@H]1CN([C@@H](C)CO)S(=O)(=O)c2ccc(C#Cc3ccccn3)cc2O[C@H]1CN(C)Cc1ccc(F)cc1
activity change (Venus) (%): -24.87

structure: Cc1ccc(S(=O)(=O)Nc2ccc3c(c2)C(=O)N([C@@H](C)CO)C[C@H](C)[C@@H](CN(C)Cc2ccc(C(F)(F)F)cc2)OCCCC[C@@H](C)O3)cc1
activity change (Venus) (%): -82.98

structure: C[C@@H]1CN([C@H](C)CO)C(=O)Cc2cc(NC(=O)Nc3ccccc3)ccc2O[C@@H]1CN(C)Cc1ccc(-c2ccccc2)cc1
activity change (Venus) (%): -36.1

structure: O=C(Cc1ccccc1)N1CCCCN2[C@H](C1)[C@@H](c1ccc(-c3ccccc3)cc1)[C@@H]2CO
activity change (Venus) (%): -26.65

structure: C[C@H]1CN([C@@H](C)CO)S(=O)(=O)c2ccc(C#CCC3CCCC3)cc2O[C@@H]1CN(C)C(=O)CN(C)C
activity change (Venus) (%): -73.43

structure: COC(=O)C[C@H]1C[C@@H]2c3cc(NC(=O)Nc4ccc(C(F)(F)F)cc4)ccc3O[C@@H]2[C@@H](CO)O1
activity change (Venus) (%): -37.24

structure: COc1ccc(-c2cnc3c(c2)C(=O)N([C@H](C)CO)C[C@H](C)[C@H](CN(C)Cc2cccc(C(F)(F)F)c2)O3)cc1
activity change (Venus) (%): -40.5

Once more, the final 2:

{"structure": "COC(=O)C[C@H]1C[C@@H]2c3cc(NC(=O)Nc4ccc(C(F)(F)F)cc4)ccc3O[C@@H]2[C@@H](CO)O1", "activity change (Venus) (%)": "-37.24"}
{"structure": "COc1ccc(-c2cnc3c(c2)C(=O)N([C@H](C)CO)C[C@H](C)[C@H](CN(C)Cc2cccc(C(F)(F)F)c2)O3)cc1", "activity change (Venus) (%)": "-40.5"}